Data reported in PMC6271632, “Tryptophan as a Probe to Study the Anticancer Mechanism of Action and Specificity of α-Helical Anticancer Peptides” (Molecules, 2014).

Tests used:
[1] = Tryptophan fluorescence with normal LUVs; conditions: normal LUVs vs HEPES buffer; 2 μM peptide, 0.1 mM LUVs, pH 7.4, excitation 280 nm
[2] = Tryptophan fluorescence with cancer LUVs; conditions: cancer LUVs vs Hepes buffer; 2 μM peptide, 0.1 mM LUVs, pH 7.4, excitation 280 nm
[3] = Isothermal titration calorimetry with DMPS LUVs; type: binding; conditions: ITC
Procedure: (§1) To mimic cancer cell and normal cell membranes, desired phospholipid powders were mixtured under certain ratios. Phospholipid mixtures were dissolved in chloroform, dried by N2 flow, and then vacuumed overnight to remove the trace of organic solvents. The lipids were hydrated in 10 mM HEPES and 150 mM NaCl buffer (pH 7.4) and extensively vortexed above the phase-transition temperature of phospholipid, obtaining multilamellar large vesicles (MLVs). To obtain large unilamellar vesicles (LUVs), the MLVs was exposed to five freeze-thaw cycles and pass 21 times through two polycarbonate membrane (0.1 μm) with a mini-extruder above the phase-transition temperature of phospholipids. The phospholipid concentrations were determined by phosphorus analysis.
(§2) The affinity of peptides with LUV liposomes were detected by a Nano ITC2G isothermal titration calorimeter (TA Instrument Corp., New Castle, DE, USA) at 25 °C, under HEPES buffer condition (10 mM HEPES, and 150 mM NaCl (pH 7.0)). To avoid air bubbles, peptides and LUV solutions were degassed under vacuum 500 mmHg, for 14 min before using. Titrations were performed by injecting aliquots of LUVs (lipid concentrations of DMPC and DMPS were 14.75 mM and 14.25 mM, respectively) into the calorimeter cell containing peptide solution (peptide concentrations varying between 25 and 50 μM) with 6 min waiting time between injections and 300 rpm of stirring rate. Data analysis was performed using the NanoAnalyze program provided by TA Instruments. Noises were controlled by the deduction of buffer signals in the presence or absence of liposomes. The vesicles sizes of peptide-exposed lipids are similar in DMPC and DMPS solutions; in contrast, the vesicles sizes of peptide-free lipids of DMPC and DMPS are similar to each other, but in comparatively smaller sizes than peptide-exposed lipids, respectively (data not shown).

[4] = Isothermal titration calorimetry with DMPC LUVs; type: binding; conditions: ITC
Procedure: The interaction of the peptides PNW and PCW with phospholipids was investigated using ITC at 25 °C, in which DMPC or DMPS LUVs were injected into an ITC cell containing peptide solutions of PNW or PCW. Based on the tryptophan fluorescence and quenching experiments, PNW and PCW could cover the trend of peptide-membrane interaction, thus, PMW was not included in the liposome experiments. The interaction of peptides with phospholipid bilayer membrane is entropy-driven. […] It is clear to see that the endothermic heat flow decreased with the increase of the number of injections and the free peptide concentration in the cell decreased simultaneously. The endothermic binding reaction of peptide PNW ceased after 20 injections, when all of peptide in bulk bound to DMPC LUVs (Figure 4A) and the further addition of DMPC LUVs caused dilution heat. However, the endothermic binding reaction of PCW ceased after 22 injections.
as §1, §2

| SMILES | Blue shift in emission wavelength maxima [1] [nm] | Blue shift in emission wavelength maxima [2] [nm] | Intensity change (Trp fluorescence) [2] | N (binding stoichiometry) ([3]; 25 °C) | ∆H (total binding enthalpy) ([3]; 25 °C) [kJ/M] | ∆S (entropy of binding) ([3]; 25 °C) [J M^−1K^−1] | T∆S ([3]; 298.15 K) [kJ/M] | ∆G (free energy of binding) ([3]; ΔG = ΔH − TΔS) [kJ/M] | N (binding stoichiometry) ([4]; 25 °C) | ∆H (total binding enthalpy) ([4]; 25 °C) [kJ/M] | ∆S (entropy of binding) ([4]; 25 °C) [J M^−1K^−1] | T∆S ([4]; 298.15 K) [kJ/M] | ∆G (free energy of binding) ([4]; ΔG = ΔH − TΔS) [kJ/M] |
| --- | --- | --- | --- | --- | --- | --- | --- | --- | --- | --- | --- | --- | --- |
| CC[C@H](C)[C@H](NC(=O)[C@H](CCCCN)NC(C)=O)C(=O)N[C@@H](CCCCN)C(=O)N[C@@H](CO)C(=O)N[C@@H](Cc1ccccc1)C(=O)N[C@@H](CC(C)C)C(=O)N[C@@H](CCCCN)C(=O)N[C@H](C(=O)N[C@@H](Cc1ccccc1)C(=O)N[C@@H](CCCCN)C(=O)N[C@@H](CO)C(=O)N[C@@H](CC(C)C)C(=O)N[C@@H](CCCCN)C(=O)N[C@@H](CCCCN)C(=O)N[C@H](C(=O)N[C@H](C(=O)N[C@@H](CC(C)C)C(=O)N[C@@H](Cc1c[nH]cn1)C(=O)N[C@H](C(=O)N[C@@H](CC(C)C)C(=O)N[C@@H](CC(C)C)C(=O)N[C@@H](CCCCN)C(=O)N[C@@H](C)C(=O)N[C@@H](Cc1c[nH]c2ccccc12)C(=O)N[C@@H](CO)C(=O)N[C@@H](CO)C(N)=O)[C@@H](C)O)C(C)C)[C@@H](C)O)[C@@H](C)O [PCW] | 0 | 6 | 2 | 18.96 | -3.20 | 70.58 | 21.04 | -24.24 | 58.60 | 10.93 | 105.90 | 31.57 | -20.64 |
| CC[C@H](C)[C@H](NC(=O)[C@H](C)NC(=O)[C@H](CCCCN)NC(=O)[C@H](CC(C)C)NC(=O)[C@H](CC(C)C)NC(=O)[C@@H](NC(=O)[C@H](Cc1c[nH]cn1)NC(=O)[C@H](CC(C)C)NC(=O)[C@@H](NC(=O)[C@@H](NC(=O)[C@H](CCCCN)NC(=O)[C@H](CCCCN)NC(=O)[C@H](Cc1c[nH]c2ccccc12)NC(=O)[C@H](CO)NC(=O)[C@H](CCCCN)NC(=O)[C@H](Cc1ccccc1)NC(=O)[C@@H](NC(=O)[C@H](CCCCN)NC(=O)[C@H](CC(C)C)NC(=O)[C@H](Cc1ccccc1)NC(=O)[C@H](CO)NC(=O)[C@H](CCCCN)NC(=O)[C@@H](NC(=O)[C@H](CCCCN)NC(C)=O)[C@@H](C)CC)[C@@H](C)O)[C@@H](C)O)C(C)C)[C@@H](C)O)C(=O)N[C@@H](CO)C(=O)N[C@@H](CO)C(N)=O [PMW] | 3 | 9 | 38 | – | – | – | – | – | – | – | – | – | – |
